# Source: the supplement of paper PMC8728848
# The list shows a part of the results.
# What was measured:
# Assay in all cases: glycan array binding signal (z-score within array); higher = stronger binding
# Conditions in all cases: glycan notation: IUPAC condensed, linker removed
# [1] = target: Neu5Ac(a2-6)Gal(b1-4)GlcNAc(b1-2)Man(a1-3)[Neu5Ac(a2-3)Gal(b1-4)GlcNAc(b1-2)Man(a1-6)]Man(b1-4)GlcNAc(b1-4)GlcNAc
# Summary of the method: (§1)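 The binding signal is a Z-score computed within each array. Data were drawn from 3228 arrays in the Consortium for Functional Glycomics database, restricted to those with a known protein sequence. Scores were averaged over arrays of the same protein sequence at different concentrations or buffers, and over linkers, and negative values can be taken as non-binding.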
# [2] = target: Neu5Ac(a2-6)Gal(b1-4)GlcNAc(b1-2)Man(a1-3)[Neu5Ac(a2-6)Gal(b1-4)GlcNAc(b1-2)Man(a1-6)]Man(b1-4)GlcNAc(b1-4)GlcNAc
# Summary of the method: as §1
# [3] = target: Neu5Ac(a2-6)Gal(b1-4)GlcNAc(b1-2)Man(a1-3)[Neu5Ac(a2-6)Gal(b1-4)GlcNAc(b1-2)Man(a1-6)]Man(b1-4)GlcNAc(b1-4)[Fuc(a1-6)]GlcNAc
# Summary of the method: as §1
# [4] = target: Neu5Ac(a2-6)Gal(b1-4)GlcNAc(b1-2)Man(a1-6)Man(b1-4)GlcNAc(b1-4)GlcNAc
# Summary of the method: as §1
# [5] = target: Neu5Ac(a2-6)Gal(b1-4)GlcNAc(b1-2)Man(a1-6)[Gal(b1-4)GlcNAc(b1-2)Man(a1-3)]Man(b1-4)GlcNAc(b1-4)GlcNAc
# Summary of the method: as §1
# [6] = target: Neu5Ac(a2-6)Gal(b1-4)GlcNAc(b1-2)Man(a1-6)[GlcNAc(b1-2)Man(a1-3)]Man(b1-4)GlcNAc(b1-4)GlcNAc
# Summary of the method: as §1
# [7] = target: Neu5Ac(a2-6)Gal(b1-4)GlcNAc(b1-2)Man(a1-6)[Man(a1-3)]Man(b1-4)GlcNAc(b1-4)GlcNAc
# Summary of the method: as §1
# [8] = target: Neu5Ac(a2-6)Gal(b1-4)GlcNAc(b1-2)[Neu5Ac(a2-6)Gal(b1-4)GlcNAc(b1-4)]Man(a1-3)[GlcNAc(b1-4)][Neu5Ac(a2-6)Gal(b1-4)GlcNAc(b1-2)[Neu5Ac(a2-6)Gal(b1-4)GlcNAc(b1-6)]Man(a1-6)]Man(b1-4)GlcNAc(b1-4)GlcNAc
# Summary of the method: as §1
# [9] = target: Neu5Ac(a2-6)Gal(b1-4)GlcNAc(b1-2)[Neu5Ac(a2-6)Gal(b1-4)GlcNAc(b1-4)]Man(a1-3)[GlcNAc(b1-4)][Neu5Ac(a2-6)Gal(b1-4)GlcNAc(b1-4)Man(a1-6)]Man(b1-4)GlcNAc(b1-4)GlcNAc
# Summary of the method: as §1
# [10] = target: Neu5Ac(a2-6)Gal(b1-4)GlcNAc(b1-2)[Neu5Ac(a2-6)Gal(b1-4)GlcNAc(b1-6)]Man(a1-6)[Neu5Ac(a2-6)Gal(b1-4)GlcNAc(b1-2)Man(a1-3)][GlcNAc(b1-4)]Man(b1-4)GlcNAc(b1-4)GlcNAc
# Summary of the method: as §1
# [11] = target: Neu5Ac(a2-6)Gal(b1-4)GlcNAc(b1-3)Gal(b1-3)GlcNAc
# Summary of the method: as §1
# [12] = target: Neu5Ac(a2-6)Gal(b1-4)GlcNAc(b1-3)Gal(b1-4)GlcNAc
# Summary of the method: as §1
# [13] = target: Neu5Ac(a2-6)Gal(b1-4)GlcNAc(b1-3)Gal(b1-4)GlcNAc(b1-2)Man(a1-3)[Neu5Ac(a2-6)Gal(b1-4)GlcNAc(b1-3)Gal(b1-4)GlcNAc(b1-2)Man(a1-6)]GalNAc
# Summary of the method: as §1
# [14] = target: Neu5Ac(a2-6)Gal(b1-4)GlcNAc(b1-3)Gal(b1-4)GlcNAc(b1-3)Gal(b1-4)GlcNAc
# Summary of the method: as §1
# [15] = target: Neu5Ac(a2-6)Gal(b1-4)GlcNAc(b1-3)Gal(b1-4)GlcNAc(b1-3)Gal(b1-4)GlcNAc(b1-2)Man(a1-3)[Neu5Ac(a2-6)Gal(b1-4)GlcNAc(b1-3)Gal(b1-4)GlcNAc(b1-3)Gal(b1-4)GlcNAc(b1-2)Man(a1-6)]GalNAc
# Summary of the method: as §1
# [16] = target: Neu5Ac(a2-6)Gal(b1-4)GlcNAc(b1-3)Gal(b1-4)GlcNAc(b1-3)GalNAc
# Summary of the method: as §1
# [17] = target: Neu5Ac(a2-6)Gal(b1-4)GlcNAc(b1-3)Gal(b1-4)GlcNAc(b1-3)[Neu5Ac(a2-6)Gal(b1-4)GlcNAc(b1-3)Gal(b1-4)GlcNAc(b1-6)]GalNAc
# Summary of the method: as §1
# [18] = target: Neu5Ac(a2-6)Gal(b1-4)GlcNAc(b1-3)Gal(b1-4)GlcNAc(b1-6)[Gal(b1-3)]GalNAc
# Summary of the method: as §1
# [19] = target: Neu5Ac(a2-6)Gal(b1-4)GlcNAc(b1-3)Gal(b1-4)[Fuc(a1-3)]GlcNAc(b1-3)Gal(b1-4)[Fuc(a1-3)]GlcNAc
# Summary of the method: as §1
# [20] = target: Neu5Ac(a2-6)Gal(b1-4)GlcNAc(b1-3)GalNAc
# Summary of the method: as §1
# [21] = target: Neu5Ac(a2-6)Gal(b1-4)GlcNAc(b1-3)[Neu5Ac(a2-6)Gal(b1-4)GlcNAc(b1-6)]GalNAc
# Summary of the method: as §1
# [22] = target: Neu5Ac(a2-6)Gal(b1-4)GlcNAc(b1-6)GalNAc
# Summary of the method: as §1
# [23] = target: Neu5Ac(a2-6)Gal(b1-4)GlcNAc(b1-6)[Gal(b1-3)GlcNAc(b1-3)]Gal(b1-4)Glc
# Summary of the method: as §1
# [24] = target: Neu5Ac(a2-6)Gal(b1-4)GlcNAc(b1-6)[Gal(b1-3)]GalNAc
# Summary of the method: as §1
# [25] = target: Neu5Ac(a2-6)Gal(b1-4)GlcNAc6S
# Summary of the method: as §1
# Neu5Ac(a2-6)GalNAc = target: Neu5Ac(a2-6)GalNAc
# Summary of the method: as §1
# [26] = target: Neu5Ac(a2-6)GalNAc(b1-4)GlcNAc
# Summary of the method: as §1
# [27] = target: Neu5Ac(a2-6)GalNAc(b1-4)GlcNAc6S
# Summary of the method: as §1
# [28] = target: Neu5Ac(a2-6)GlcNAc(b1-4)GlcNAc
# Summary of the method: as §1
# [29] = target: Neu5Ac(a2-6)GlcNAc(b1-4)GlcNAc(b1-4)GlcNAc
# Summary of the method: as §1
binder,measurement,setting,value
PX9961W-pdi-543-27-543 (Parabacteroides distasonis) (protein) EGNATTTSYFLNDQQAIDAIDGLYERFHQEGCYGRELFWEQGAACDIVWGRTRGYNSLATLAYTGDESPLRDVFSRMYSTMSRANWIIQELVKKEKGTTLTAVEKRSLGEAYFSRGWAHYLIAYRYGTDKQGVPFVRYEDFPDDYDNSIPPQQATVMDNYKLIIEDMDKAIAYLPIFESYDADNRGRAHQAAAVAFKAKTYAYWATWDATQWNNVIEMVNQLENNYNRDLAPTFAELFSSDLKDYWNAEYLWTIPSIGGALPGGTEFPGIILENKGWGKYNGWGQMKPSYDIYEEMAKDGKGNDRLVRSILEYNQEFPFFGETRKFWSTSDLEAGFMINKYMDAFKYSDPVGEGAVSANGDWPTVRVNFPIIRFAEMLLFRAEAYLMTGQADKATADINRIRLRSNLTPLTGTATMKDLYHERRCELAFEFTDHLFDLKRWNRSSNADIKTLADKELNAHPRIRRYEDRANPESAFTIIGYEDYTNKNAYQAHMMVFPYPSEEITKSNGQLKQNEGY,glycan array binding signal (z-score),[1],-0.733
same,glycan array binding signal (z-score),[2],-0.249
same,glycan array binding signal (z-score),[3],0.138
same,glycan array binding signal (z-score),[4],1.38
same,glycan array binding signal (z-score),[5],-1.11
same,glycan array binding signal (z-score),[6],0.243
same,glycan array binding signal (z-score),[7],0.11
same,glycan array binding signal (z-score),[8],0.354
same,glycan array binding signal (z-score),[9],0.159
same,glycan array binding signal (z-score),[10],0.776
same,glycan array binding signal (z-score),[11],0.286
same,glycan array binding signal (z-score),[12],0.41
same,glycan array binding signal (z-score),[13],0.474
same,glycan array binding signal (z-score),[14],-0.315
same,glycan array binding signal (z-score),[15],1.59
same,glycan array binding signal (z-score),[16],-0.05
same,glycan array binding signal (z-score),[17],-0.683
same,glycan array binding signal (z-score),[18],-0.695
same,glycan array binding signal (z-score),[19],-0.696
same,glycan array binding signal (z-score),[20],-0.654
same,glycan array binding signal (z-score),[21],-0.692
same,glycan array binding signal (z-score),[22],0.508
same,glycan array binding signal (z-score),[23],-0.801
same,glycan array binding signal (z-score),[24],-0.176
same,glycan array binding signal (z-score),[25],-0.912
same,glycan array binding signal (z-score),Neu5Ac(a2-6)GalNAc,-1.06
same,glycan array binding signal (z-score),[26],-0.098
same,glycan array binding signal (z-score),[27],0.074
same,glycan array binding signal (z-score),[28],-0.176
same,glycan array binding signal (z-score),[29],-0.018

# Nothing new here: entries from further up.
binder,measurement,setting,value
PX9961W-pdi-543-27-543 (Parabacteroides distasonis) (protein) EGNATTTSYFLNDQQAIDAIDGLYERFHQEGCYGRELFWEQGAACDIVWGRTRGYNSLATLAYTGDESPLRDVFSRMYSTMSRANWIIQELVKKEKGTTLTAVEKRSLGEAYFSRGWAHYLIAYRYGTDKQGVPFVRYEDFPDDYDNSIPPQQATVMDNYKLIIEDMDKAIAYLPIFESYDADNRGRAHQAAAVAFKAKTYAYWATWDATQWNNVIEMVNQLENNYNRDLAPTFAELFSSDLKDYWNAEYLWTIPSIGGALPGGTEFPGIILENKGWGKYNGWGQMKPSYDIYEEMAKDGKGNDRLVRSILEYNQEFPFFGETRKFWSTSDLEAGFMINKYMDAFKYSDPVGEGAVSANGDWPTVRVNFPIIRFAEMLLFRAEAYLMTGQADKATADINRIRLRSNLTPLTGTATMKDLYHERRCELAFEFTDHLFDLKRWNRSSNADIKTLADKELNAHPRIRRYEDRANPESAFTIIGYEDYTNKNAYQAHMMVFPYPSEEITKSNGQLKQNEGY,glycan array binding signal (z-score),[14],-0.315
same,glycan array binding signal (z-score),[15],1.59
